Most values lie at the floor of the assay. Slopes are relative: functional sequences can read slightly below zero.
tested on: Saccharomyces cerevisiae PS128 hsf1 delta, HSF1(1-493) fusion; assay: growth estimate (transactivation domain function in HSF1 fusion, heat-shock survival) (a.u. (slope of normalised read count over time)); higher = stronger growth at 37°C, i.e. more transactivation activity; settings: library: random library

Substance	growth estimate
VDQKARSCH	< -0.25
DARAPGLVLI	< -0.25
YAPPVLLGLSNCCLTT	< -0.25
RLWRLL	< -0.25
QLYN	< -0.25
PPVQGKCWNTTLSRTEHQAR	< -0.25
TRLRQP	< -0.25
ISSTW	< -0.25
RSTRYCIRSSPI	< -0.25
VRKLFRPGVLLRK	< -0.25
LQDAEQLPADLIIHNRQGPT	< -0.25
SGIERRCL	-0.246
GPEESIVLFRT	< -0.25
AYQSCGRLKLYVAARARIIR	< -0.25
RHSIEHRAVVPKRDTNLNQD	< -0.25
GLGLSD	< -0.25
YKFGARCCSAPYPRASYKLT	< -0.25
WREI	< -0.25
RSRE	< -0.25
SFRGVLHL	< -0.25
GADGRVFYS	< -0.25
YRGPCPLKQQAYPDRKAR	< -0.25
TLSGRAQSSRGNAVHRGCCY	< -0.25
GVWGTLRLITRRPEVPMNNR	< -0.25
DFGRDRGKPFIRSIASPFSN	< -0.25

Substance	growth estimate
TGFEDPRSCRATHRGCREAN	< -0.25
VRGKVQDNKGGIPRFLAMSS	< -0.25
LCRVPVR	< -0.25
DGGAKRSISRGIGRYESTLQ	< -0.25
ISMQDQVNYVVFLSGRDCSP	< -0.25
LIGR	< -0.25
STGRYKKTAAF	< -0.25
FVVRNLIRHSSLPGIERTGR	-0.25
GARSLGR	< -0.25
RRKSG	< -0.25
FLPSKHID	-0.171
TTAGFNSPGRYNVRILFAAH	< -0.25
ITGSGGLSGLMATRVGSGRP	< -0.25
ASILLRRPGRVPSGSTPS	< -0.25
LLFSLLIEYLHVVSHRNQPY	< -0.25
CKRDTMSQAQPLLPPLLQRT	-0.247
SVSALGADTASRNIRTVILT	< -0.25
LQYPIIRAIASKMVGGAW	< -0.25
RELLSRPHLGSNH	< -0.25
VTKPSIMLKGL	< -0.25
TLRESARYCRVQFSYWSGDC	< -0.25
QEIVSRERRIHIHIY	< -0.25
VYRSVAHVRQTVTYLPRTYL	< -0.25
ALPRSLIELEVDNFA	< -0.25
NHARRRAVILPLPADHQTTD	< -0.25

Substance	growth estimate
QNLFIHNLLLC	< -0.25
GGQAATE	< -0.25
RIYTPLSHLDRGVNALTRSG	< -0.25
VDSHLIILRSRTLEYIHTQV	< -0.25
YSNAVEQSGSSSGCN	< -0.25
DSTVQVVWPQFWCMQDRIER	< -0.25
YGSP	< -0.25
NKYLGSSRFEIGLGSPGNGI	< -0.25
TDLCRRRIHLPGDSDAAPCS	< -0.25
MGINKPVAVGLATQWARAGR	< -0.25
TVVARAWVFS	-0.245
FIMGMLRP	< -0.25
LICGNTALPRCQSGSSRHRR	< -0.25
GMRAPSTLGKQGRCKKLWRA	< -0.25
HIR	< -0.25
FESSSRRSHLGNLCLEYLYI	< -0.25
SFAQNARHISEEDRDAAEKF	< -0.25
IRSKIPG	< -0.25
SRCSSEIGDGQLTLWPRHLT	< -0.25
RFLFRLPPTSHSI	< -0.25
WEFNISLGCGKQCSSCMGSL	< -0.25
FAWMRSANAGLSSQSSF	< -0.25
GGRVGTCGGVNRVAEFPRQD	< -0.25
GLAYMEAVTLCAGNVASGFA	< -0.25
IRW	< -0.25

Substance	growth estimate
SILEVCFMGEYPSCMTLMRG	< -0.25
AIEVTEETARFRVTLRHKVP	< -0.25
VWLLYYYPHGEWGCDGRTAA	< -0.25
RLCYSLFRFSGVGSHFTSPP	< -0.25
ERRHPNDRRPFRSA	< -0.25
WRS	< -0.25
ERESLVVWLIQGNAVLCHLF	< -0.25
RGSLAGKSQMSKDG	< -0.25
LVEVSF	< -0.25
SNFGVEWSN	< -0.25
GSSKFDSLWGQVNASSMGWS	< -0.25
GNYYRFKRLLHQIWRPIHCT	< -0.25
AGIPNPSFFPAKARCGASCQ	< -0.25
LNGISI	< -0.25
VDSLGVAQKKFQANICDSLG	< -0.25
RKDHEQPQGRGIGAAVPSSL	< -0.25
ATCNTR	< -0.25
ESGVVTGTSFVGEASYLRTG	< -0.25
VGGNPPTGCTRDEGLKNSWA	< -0.25
ICEECTDSGSKGPVKEDLTS	< -0.25
AKRCRVRI	< -0.25
ANSQGRQSSMSGRGKARE	< -0.25
FEIIGAYSLTAKAWHAVELG	< -0.25
RDHAVSCTLLRPSFQLKAIR	< -0.25
GAISTLSRRVRINLAKCTYE	< -0.25

Two entries from above in another layout:

| Substance | growth estimate |
| --- | --- |
| WRS | < -0.25 |
| FEIIGAYSLTAKAWHAVELG | < -0.25 |

Carrying on:

Substance	growth estimate
KMIAGERY	< -0.25
RGFLA	< -0.25
GLEYLDSCGWEGIR	< -0.25
GIGRISNVGVPPDR	< -0.25
GIIEEYAGDVNGRGQEGPLL	< -0.25
RGSASRRCVQNLVYSAKGQN	< -0.25
VLVWVRVSHCWPSNNGPHS	< -0.25
IIRLVKGFFLE	< -0.25
ATTSLYALLLALHFVDFIIT	< -0.25
RERSSLRVGGLVEDTPS	< -0.25
PVIRTWPFGPGVKIELV	-0.183
PSFNEDQV	< -0.25
AADRSCPCVWAPLPDLRG	< -0.25
MRSVAIRLGEHNYEKRRAGH	< -0.25
LSQNCSLAKQTLFFAGQPAI	-0.248
ACNLRCRWGLRTESLLRWRM	< -0.25
KIVELEMDLGWI	< -0.253
RFLYTSFGLV	< -0.25
TVNKHYFTIRGIA	< -0.25
IVIRGARDG	-0.248
GNE	< -0.25
YLNVHLRARRYRCGHALLVE	< -0.25
IVSIALQWKHW	< -0.25
RELNEFYVERQSLALRWRCS	< -0.25
TLCDRIE	< -0.25

Substance	growth estimate
VSSRDGSFAHKFKCAIDASV	< -0.25
PSFVRGYTL	< -0.25
TVNVWEADVFCKVGGNLEAW	< -0.25
TSADIKNA	< -0.25
GSACVGVSSGKTRQVRRLYL	-0.25
SVCQAFSFDTTAQATVYVVP	< -0.25
GTLIEESDAYAR	< -0.25
HAILMTFDARLRLNFKRSTV	< -0.25
TTGLLCLPKSLTRPLGGVRG	< -0.25
EAHCRPGFWYLTSGGKLSL	< -0.25
STYSEFPARGVSHWCMRGRL	< -0.25
LLIATDMGRLVQILRTIYEQ	< -0.25
TGKQRCGGVRHKSRKVVHHL	< -0.25
LCNTYQQFSECST	< -0.25
WANRGKTFLVLPSSVVAYIR	< -0.25
GLRGENGTS	< -0.25
RCEHKTACKECVLQRTTSIH	< -0.25
KIARVWVGVAKRLEAQHVIW	< -0.25
SSKYAQFYVD	< -0.25
ARVVESRTEYVAFYFAFSLA	< -0.25
ISLRSRENAFLRRPSKFHGV	< -0.25
YNVAGTIR	< -0.25
RCEDTLAKLPAYCPWGTGLP	< -0.25
PAVINTWR	< -0.25
TFESVSYREVELRSVNACNA	< -0.25

Substance	growth estimate
VGQLEATVAKSSRYNI	< -0.25
CNGPIDGPWQESR	< -0.25
PEYPSGVLRRLCVFSTLQPY	< -0.25
GNRVRVLKVISSAFWPSFVS	< -0.25
KGKMNRHDYNAQVCLDDRWL	< -0.25
AVRFRESRVGH	< -0.251
VCNRCRSM	-0.009
QGGPVYNMQSKAKGKGGRAA	< -0.25
KMA	< -0.25
MEGAVHA	< -0.25
MYTGAFCVWPCKCHPN	< -0.25
PCILGFRQGRYFVRTRTPYV	< -0.25
ASSG	< -0.25
KFTKDSVFISEILISNGDAL	< -0.25
FPSTVVKSHADTAVSGNLPL	< -0.25
VCTCYSCPCVLAILSRHGSH	< -0.25
SSLKG	< -0.25
AADHVGYLYWSALRGYARPY	< -0.25
FTTFGFGRGMCATSQAAATF	< -0.25
PHLRGVLTHSGIHYDAC	< -0.25
QHILTPFSDIICRRQKISSR	< -0.25
ADDIGLDLAYRSLLSVRNKA	< -0.25
RRDCPGA	< -0.25
LGSGPGKRYADLVRMGDPEM	< -0.25
LGHCLAPPRE	< -0.25

Quoted from the listing:
Entry for IVSIALQWKHW under growth estimate: < -0.25
Entry for AGIPNPSFFPAKARCGASCQ under growth estimate: < -0.25
Entry for RCEHKTACKECVLQRTTSIH under growth estimate: < -0.25
Entry for TLRESARYCRVQFSYWSGDC under growth estimate: < -0.25
Entry for PPVQGKCWNTTLSRTEHQAR under growth estimate: < -0.25
Entry for SGIERRCL under growth estimate: -0.246

Following part:

Substance	growth estimate
PNHASFRASCRRS	< -0.25
LIRHDAH	< -0.25
RTRSIPSTFITEHLK	< -0.25
PTVTS	< -0.25
NVNVCSNHTFRRVVLRDYQA	< -0.25
ASNGKASGRGVSWNRYDQGA	< -0.25
FLCGGSGLQVGAPGVVEPTD	< -0.25
ARPGRHLIGLPVMMGIQRQN	< -0.25
RTSSRAL	< -0.25
TTQETLLGAGAQGSLCAGES	< -0.25
SQGSAFALE	< -0.25
RMFQIIGNGTAFGGSIGHPP	< -0.25
PPDARTSDI	< -0.25
CRALVALLTYNFAAIHEPS	< -0.25
EKPLTSRSRYHQRDSGQCDN	< -0.25
QGPA	< -0.25
SFPLDSSDSTNLVDYLRRPA	< -0.25
CGDSLTLSPRAVMAPMVRSP	< -0.25
ECKIMRIYEGRSVSAHLGER	< -0.25
SIKLGAPE	< -0.25
FSQDIVGKS	< -0.25

Reference: the supplement of paper PMC5949888
